# From PubChem BioAssay AID624291 (National Center for Advancing Translational Sciences (NCATS), 2012)
# About 220 (0.063%) of roughly 350,000 compounds were called active. Inconclusive means that the source gave no clear call. Such entries were picked first, then a sample of the others. Calls come from the whole dose curve; as a rule, active = well fitted activation curve with a large enough effect; inconclusive = small, poorly fitted or top-dose-only effect; inactive = no such curve, though single readings can be large or run the other way. A potency beside an inconclusive call is a rough fit, not a confirmed value.
# Test: qHTS for Activators of Integrin-Mediated Alleviation for Muscular Dystrophy; note: nearly all actives have a fitted effect of over 60% in size;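 for activation: 100% = response of the positive control SU9516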
# Settings: alpha7betagal myoblasts, beta-gal FDG fluorescence, 48 h; activation: at 38.3 µM (top of the series)
# Method in brief: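 alpha7betagal+/- myoblasts (passage 13, 250/well) treated 48 h at 37C with compounds at 1:260 dilution of DMSO stock. Lysed, then beta-galactosidase activity read as FDG fluorescence (ex 480/em 540) after 30 min, with pre-read for autofluorescence.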
# Potency is the fitted concentration of half-maximal effect.
Structure (SMILES),Potency,activation
COc1ccc(NC(=O)Cn2c(C(C)C)nc(C)cc2=O)cc1Cl,"inconclusive: 2.82 µM [activator, single point]",–
CCNC(=S)N(CCc1ccc(S(N)(=O)=O)cc1)C1CC(=O)N(c2ccccc2)C1=O (stereo unspecified),"inconclusive: 1.26 µM [activator, single point]",–
COc1ccc(C2=Nn3c(nnc3-c3ccncc3)SC2)cc1,inactive,–
CCOc1ccc(CCNC(=O)c2cc(C)on2)cc1OCC,"inconclusive: 5.01 µM [activator, partial curve, poor fit]",–
Cc1cc(C)c2nc(C)cc(Nc3ccc(C(=O)NCCO)cc3)c2c1,"inconclusive: 3.98 µM [activator, single point]",–
CC(=O)c1ccc(NC(=O)CCNS(=O)(=O)c2cc(Br)cnc2N)cc1,"inconclusive: 11.2 µM [activator, partial curve, poor fit]",–
COc1cc(C(=O)N(Cc2ccccc2)c2cccc(C)c2)ccc1OCC(=O)N1CCOCC1,inactive,–
CCC1(CC)C(=O)N(c2ccccc2)C(=N)N(c2ccccc2)C1=O,inactive,–
CCCCC(=O)Nc1ccc(C(=O)NNC(=O)c2cccs2)cc1,"inconclusive: 5.01 µM [activator, single point]",–
Nc1ncnc(Nc2cccc(Cl)c2Cl)n1,"inconclusive: 2.51 µM [activator, single point]",–
COc1cc(NC(=O)NNC(=O)c2cc3occc3n2C)cc(OC)c1OC,"inconclusive: 3.98 µM [activator, single point]",–
Cc1ccc(-c2csc(NC(=O)c3cccc(S(=O)(=O)N4CCN(C)CC4)c3)n2)cc1,inactive,–
NC(=S)N/N=C/c1ccccc1O,"inconclusive: 0.891 µM [activator, single point]",–
C=CCN=c1scc(-c2ccc(F)cc2)n1/N=C/c1ccccn1,inactive,–
COc1ccc(NC(=O)c2cc(S(=O)(=O)N3CCCCC3)ccc2OC)cc1,"inconclusive: 28.2 µM [activator, single point]",–
CCCn1c(=C(C#N)C#N)s/c(=C2\C=Cc3ccccc3N2CC)c1=O,"inconclusive: 5.01 µM [activator, single point]",–
Cn1nccc1C(=O)NC(=S)Nc1cc(Cl)cc(Cl)c1,inactive,–
CS(=O)(=O)N1CCN(c2ccc(NC(=O)c3ccc(-c4ccc(Cl)cc4)o3)cc2)CC1,"inconclusive: 2.82 µM [activator, single point]",–
N=C1S/C(=C\c2cn[nH]c2-c2ccc(F)cc2)C(=O)N1c1ccccc1F,"inconclusive: 8.91 µM [activator, partial curve, poor fit]",–
Cc1ccccc1N(C)S(=O)(=O)c1nnc(NC(=O)c2ccccc2F)s1,"inconclusive: 2.82 µM [activator, single point]",–
Cc1ccc(CNC(=O)C2CCCN(S(=O)(=O)c3c(C)noc3/C=C/N(C)C)C2)cc1 (stereo unspecified),"inconclusive: 1.78 µM [activator, partial curve, poor fit]",–
Cc1ccc(S(=O)(=O)NC2=NCN(C3CCCCC3)CN2)cc1,"inconclusive: 2.82 µM [activator, single point]",–
CN(c1ccccc1)S(=O)(=O)c1nnc(NC(=O)C2CCCCC2)s1,"inconclusive: 10 µM [activator, partial curve, poor fit]",–
Cc1ccc(NC(=O)CSc2nnc(-c3ccccc3Br)o2)cc1C,"inconclusive: 5.01 µM [activator, single point]",–

Structure (SMILES),Potency,activation
Cc1cc(Cl)ccc1Oc1ccccc1C(=O)CC#N,inactive,–
Cc1cccc(-c2nnc(SC(C)C(=O)N3CCOCC3)o2)c1 (stereo unspecified),"inconclusive: 5.01 µM [activator, single point]",–
COc1ccc(C(=O)N2CCCC(CNC(=O)c3ccccc3Cl)C2)o1 (stereo unspecified),"inconclusive: 17.8 µM [activator, partial curve, poor fit]",–
NS(=O)(=O)c1ccc(CCNC(=O)CSCc2ccccc2)cc1,"inconclusive: 5.01 µM [activator, single point]",–
O=C(CCS(=O)(=O)c1ccccc1)Nc1ccccc1-c1nc2ccccc2s1,"inconclusive: 2.82 µM [activator, partial curve, poor fit]",–
Nc1c2nc(-c3ccccc3)[nH]c(=O)c2nc(=O)n1-c1ccccc1,"inconclusive: 3.55 µM [activator, single point]",–
CC(C)(C)C1COc2ccccc2N1C(=O)c1cccc(Cl)c1 (stereo unspecified),"inconclusive: 2.82 µM [activator, single point]",–
Cc1cccc(N2CCN(C(=S)c3ccc(-c4ccccc4[N+](=O)[O-])o3)CC2)c1,"inconclusive: 1.12 µM [activator, partial curve, poor fit]",–
C/C(=N\NC(=O)c1c[nH]c2ccccc12)c1ccc2c(c1)OCO2,"inconclusive: 7.94 µM [activator, single point]",–
CC(=O)Nc1ccc(S(=O)(=O)Nc2ccc3ccccc3n2)cc1,"inconclusive: 28.2 µM [activator, single point]",–
Cc1cccc(-c2nc(C#N)c(N3CCC(C)CC3)o2)c1,"inconclusive: 28.2 µM [activator, single point]",–
O=S(=O)(NC1=NCCCCCC1)c1cccs1,"inconclusive: 5.62 µM [activator, single point]",–
N#CNC(=Nc1ccc(Cl)cc1)Oc1ccccc1,inactive,–
O=C(c1ccc(Cl)cc1)C(Cn1cncn1)C(Sc1ccccc1)c1ccccc1 (stereo unspecified),inactive,–
NNC(=S)NCc1ccco1,"inconclusive: 28.2 µM [activator, single point]",–
C/C(=C\C(=O)c1ccccc1)Nc1ccc(O)cc1,inactive,–
C=CCc1ccccc1OCCNCc1ccccc1,inactive,–
O=C(CCCSc1ccc(Cl)cc1)Nc1ccccc1O,inactive,–
O=C1/C(=C/c2ccncc2)Oc2cc(OS(=O)(=O)c3ccccc3)ccc21,inactive,–
COc1ccc(C(=O)Nc2ccccc2C(=O)Nc2cccnc2)cc1,"inconclusive: 14.1 µM [activator, single point]",–
Cc1cc(C(=O)CSc2nc3ccc(Cl)cc3[nH]2)c(C)n1Cc1ccco1,inactive,–
Cc1nn(-c2ccccc2)c(N)c1C1(O)C(=O)Nc2ccccc21 (stereo unspecified),"inconclusive: 8.91 µM [activator, partial curve, poor fit]",–
CC(C)CC(=O)Nc1ccc(C(=O)Cn2nc(C(=O)O)c3ccccc3c2=O)cc1,inactive,–
Cn1c(CCC(=O)O)nc2cc(S(=O)(=O)N3CCCCC3)ccc21,"inconclusive: 28.2 µM [activator, single point]",–

Structure (SMILES),Potency,activation
CN(Cc1nc2ccccc2c(=O)[nH]1)CC(O)COCc1ccco1 (stereo unspecified),"inconclusive: 28.2 µM [activator, single point]",–
COc1ccc(N2CCN(C(=O)CCS(=O)(=O)c3ccc4c(c3)CCN4C(=O)C3CC3)CC2)cc1,inactive,–
CNC(=O)NC(=S)NC(=O)c1ccccc1Cl,inactive,–
COc1ccc(OCc2cc(C(=O)N3CCCC(CO)C3)no2)c2ccccc12 (stereo unspecified),"inconclusive: 10 µM [activator, partial curve, poor fit]",–
NS(=O)(=O)c1ccc(CCNC(=O)c2cc(-c3cccs3)nc3ccccc23)cc1,"inconclusive: 5.01 µM [activator, single point]",–
O=C(CNS(=O)(=O)c1ccc(Br)s1)N1CCCC1,inactive,–
O=C(CCn1c(=O)oc2ccccc21)NCCN1CCOCC1,inactive,–
CCCC1=NN2C(=N)/C(=C\c3ccc(OCCOc4ccc(NC(C)=O)cc4)c(OC)c3)C(=O)N=C2S1,"inconclusive: 17.8 µM [activator, single point]",–
COC(C[C@@H]1O[C@@H]1[C@H](O)[C@@H](C)OCc1ccccc1)OC,inactive,–
CCOc1ccc(CNC(=O)Cn2c(=O)c3cccn3c3ccccc32)cc1,"inconclusive: 5.01 µM [activator, single point]",–
N#CCCn1c2ccccc2c2nc3ccccc3nc21,"inconclusive: 2.82 µM [activator, partial curve, poor fit]",–
CCSc1nc2sc3c(c2c(=O)[nH]1)CCc1ccccc1-3,inactive,–
O=C(NC1CC2CCCC(C1)N2Cc1ccccc1)c1ccc([N+](=O)[O-])cc1 (stereo unspecified),"inconclusive: 14.1 µM [activator, partial curve, poor fit]",–
CCNC(=O)c1cc(Br)ccc1Cl,inactive,–
O=C(OC1CCCCC1=O)c1ccc(S(=O)(=O)Nc2ccccc2)cc1 (stereo unspecified),"inconclusive: 2.24 µM [activator, full curve, poor fit]",–
CCOC(=O)c1csc(-c2ccc(OC)c(OC)c2)n1,–,inconclusive: 7.84% [activator]
COc1cccc(CN2CCC(C(=O)N3CCN(Cc4ccc5c(c4)OCO5)CC3)CC2)c1,inactive,–
N=c1n(CC(=O)c2ccc([N+](=O)[O-])cc2)c2ccccc2n1Cc1ccc(Cl)cc1,inactive,–
O=C(O)c1cccc(Cn2c(Cl)c(/C=N/NC(=O)c3cc4ccccc4cc3O)sc2=O)c1,"inconclusive: 11.2 µM [activator, partial curve, poor fit]",–
OCCOCCNc1ncnc2c1c(-c1ccccc1)cn2-c1ccccc1,"inconclusive: 3.16 µM [activator, single point]",–
C/C(=N\NC(=O)Cc1cccn1C)c1cccc2ccccc12,"inconclusive: 15.8 µM [activator, partial curve, poor fit]",–
O=C(c1ccco1)N1CCN(Cc2c(Cl)cccc2Cl)CC1,inactive,–
CC(C)CN(C(=O)CCNC(=O)c1ccc(Cl)cc1)C1CCS(=O)(=O)C1 (stereo unspecified),inactive,–

# An excerpt from above in order of count of non-hydrogen atoms, falling:
Structure (SMILES),Potency,activation
O=C(NC1CC2CCCC(C1)N2Cc1ccccc1)c1ccc([N+](=O)[O-])cc1 (stereo unspecified),"inconclusive: 14.1 µM [activator, partial curve, poor fit]",–
CC(C)CN(C(=O)CCNC(=O)c1ccc(Cl)cc1)C1CCS(=O)(=O)C1 (stereo unspecified),inactive,–
CN(Cc1nc2ccccc2c(=O)[nH]1)CC(O)COCc1ccco1 (stereo unspecified),"inconclusive: 28.2 µM [activator, single point]",–
